Source: the supplement of paper PMC4604168 (melanoma cell lines)
The other results are listed elsewhere or left out. Many values rest on one well or one pass, so single values are uncertain.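 The apoptosis fraction was the count of cleaved-PARP antibody-stained nuclei relative to all DNA-stained nuclei, imaged in 1,536-well plates. Screening doses were set so most cells survived, and baseline and induced cleaved-PARP levels vary greatly across cell lines.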

tested on: SkMel28; assay: cleaved PARP positive nuclei fraction relative to DMSO control; melanoma cells; higher = more apoptosis; details: library dose: low library concentration; 72 h

SMILES	cleaved PARP positive nuclei fraction [%]
CO[C@H]1C[C@@H]2CC[C@@H](C)[C@@](O)(O2)C(=O)C(=O)N2CCCC[C@H]2C(=O)O[C@H]([C@H](C)C[C@@H]2CC[C@@H](OCCO)[C@H](OC)C2)CC(=O)[C@H](C)/C=C(\C)[C@@H](O)[C@@H](OC)C(=O)[C@H](C)C[C@H](C)/C=C/C=C/C=C/1C [everolimus] + c1cc(-c2cnn3cc(-c4ccc(OCCN5CCCCC5)cc4)cnc23)ccn1 [Dorsomorphin] (first compound 0.02 µM, partner dose 0.4 µM)	536
Cn1c(=O)n(-c2ccc(C(C)(C)C#N)cc2)c2c3cc(-c4cnc5ccccc5c4)ccc3ncc21 + CO[C@H]1C[C@@H]2CC[C@@H](C)[C@@](O)(O2)C(=O)C(=O)N2CCCC[C@H]2C(=O)O[C@H]([C@H](C)C[C@@H]2CC[C@@H](OCCO)[C@H](OC)C2)CC(=O)[C@H](C)/C=C(\C)[C@@H](O)[C@@H](OC)C(=O)[C@H](C)C[C@H](C)/C=C/C=C/C=C/1C [everolimus] (first compound 0.004 µM, partner dose 0.02 µM)	983
C[C@@H](Oc1cc(-c2cnn(C3CCNCC3)c2)cnc1N)c1c(Cl)ccc(F)c1Cl [Crizotinib] + CNC(=O)c1cc(Oc2ccc(NC(=O)Nc3ccc(Cl)c(C(F)(F)F)c3)cc2)ccn1 [sorafenib] (first compound 0.2 µM, partner dose 0.4 µM)	87.7
CO[C@H]1C[C@@H]2CC[C@@H](C)[C@@](O)(O2)C(=O)C(=O)N2CCCC[C@H]2C(=O)O[C@H]([C@H](C)C[C@@H]2CC[C@@H](OCCO)[C@H](OC)C2)CC(=O)[C@H](C)/C=C(\C)[C@@H](O)[C@@H](OC)C(=O)[C@H](C)C[C@H](C)/C=C/C=C/C=C/1C [everolimus] + O=C(Nc1cccc(Cl)c1)Nc1ncc(CCNc2ncnc3ccsc23)s1 [SNS314] (first compound 0.02 µM, partner dose 0.0008 µM)	228
CO[C@H]1C[C@@H]2CC[C@@H](C)[C@@](O)(O2)C(=O)C(=O)N2CCCC[C@H]2C(=O)O[C@H]([C@H](C)C[C@@H]2CC[C@@H](OCCO)[C@H](OC)C2)CC(=O)[C@H](C)/C=C(\C)[C@@H](O)[C@@H](OC)C(=O)[C@H](C)C[C@H](C)/C=C/C=C/C=C/1C [everolimus] + Oc1nc(-c2ccc(C(F)(F)F)cc2)nc2c1CSCC2 [XAV939] (first compound 0.02 µM, partner dose 2 µM)	549
CO[C@H]1C[C@@H]2CC[C@@H](C)[C@@](O)(O2)C(=O)C(=O)N2CCCC[C@H]2C(=O)O[C@H]([C@H](C)C[C@@H]2CC[C@@H](OCCO)[C@H](OC)C2)CC(=O)[C@H](C)/C=C(\C)[C@@H](O)[C@@H](OC)C(=O)[C@H](C)C[C@H](C)/C=C/C=C/C=C/1C [everolimus] + Cc1nc(Nc2ncc(C(=O)Nc3c(C)cccc3Cl)s2)cc(N2CCN(CCO)CC2)n1 [dasatanib] (first compound 0.02 µM, partner dose 0.004 µM)	141
CO[C@H]1C[C@@H]2CC[C@@H](C)[C@@](O)(O2)C(=O)C(=O)N2CCCC[C@H]2C(=O)O[C@H]([C@H](C)C[C@@H]2CC[C@@H](OCCO)[C@H](OC)C2)CC(=O)[C@H](C)/C=C(\C)[C@@H](O)[C@@H](OC)C(=O)[C@H](C)C[C@H](C)/C=C/C=C/C=C/1C [everolimus] + CC1(C)NC(=O)N(c2ccc([N+](=O)[O-])c(C(F)(F)F)c2)C1=O [nilutamide] (first compound 0.02 µM, partner dose 1 µM)	463
CO[C@H]1C[C@@H]2CC[C@@H](C)[C@@](O)(O2)C(=O)C(=O)N2CCCC[C@H]2C(=O)O[C@H]([C@H](C)C[C@@H]2CC[C@@H](OCCO)[C@H](OC)C2)CC(=O)[C@H](C)/C=C(\C)[C@@H](O)[C@@H](OC)C(=O)[C@H](C)C[C@H](C)/C=C/C=C/C=C/1C [everolimus] + Nc1cccc2c1CN(C1CCC(=O)NC1=O)C2=O [lenalidomide] (first compound 0.02 µM, partner dose 1 µM)	276
CO[C@H]1C[C@@H]2CC[C@@H](C)[C@@](O)(O2)C(=O)C(=O)N2CCCC[C@H]2C(=O)O[C@H]([C@H](C)C[C@@H]2CC[C@@H](OCCO)[C@H](OC)C2)CC(=O)[C@H](C)/C=C(\C)[C@@H](O)[C@@H](OC)C(=O)[C@H](C)C[C@H](C)/C=C/C=C/C=C/1C [everolimus] + Nc1nc(F)nc2c1ncn2[C@@H]1O[C@H](CO)[C@@H](O)[C@@H]1O [fludarabine] (first compound 0.02 µM, partner dose 0.2 µM)	886
CO[C@H]1C[C@@H]2CC[C@@H](C)[C@@](O)(O2)C(=O)C(=O)N2CCCC[C@H]2C(=O)O[C@H]([C@H](C)C[C@@H]2CC[C@@H](OCCO)[C@H](OC)C2)CC(=O)[C@H](C)/C=C(\C)[C@@H](O)[C@@H](OC)C(=O)[C@H](C)C[C@H](C)/C=C/C=C/C=C/1C [everolimus] + C=CCn1c(=O)c2cnc(Nc3ccc(N4CCN(C)CC4)cc3)nc2n1-c1cccc(C(C)(C)O)n1 [MK1775] (first compound 0.02 µM, partner dose 0.02 µM)	207
CO[C@H]1C[C@@H]2CC[C@@H](C)[C@@](O)(O2)C(=O)C(=O)N2CCCC[C@H]2C(=O)O[C@H]([C@H](C)C[C@@H]2CC[C@@H](OCCO)[C@H](OC)C2)CC(=O)[C@H](C)/C=C(\C)[C@@H](O)[C@@H](OC)C(=O)[C@H](C)C[C@H](C)/C=C/C=C/C=C/1C [everolimus] + Nc1ncn([C@H]2C[C@H](O)[C@@H](CO)O2)c(=O)n1 [decitabine] (first compound 0.02 µM, partner dose 0.1 µM)	217
CO[C@H]1C[C@@H]2CC[C@@H](C)[C@@](O)(O2)C(=O)C(=O)N2CCCC[C@H]2C(=O)O[C@H]([C@H](C)C[C@@H]2CC[C@@H](OCCO)[C@H](OC)C2)CC(=O)[C@H](C)/C=C(\C)[C@@H](O)[C@@H](OC)C(=O)[C@H](C)C[C@H](C)/C=C/C=C/C=C/1C [everolimus] + CC(C)(C)c1cnc(CSc2cnc(NC(=O)C3CCNCC3)s2)o1 [SNS-032] (first compound 0.02 µM, partner dose 0.01 µM)	43.1
CO[C@H]1C[C@@H]2CC[C@@H](C)[C@@](O)(O2)C(=O)C(=O)N2CCCC[C@H]2C(=O)O[C@H]([C@H](C)C[C@@H]2CC[C@@H](OCCO)[C@H](OC)C2)CC(=O)[C@H](C)/C=C(\C)[C@@H](O)[C@@H](OC)C(=O)[C@H](C)C[C@H](C)/C=C/C=C/C=C/1C [everolimus] + Cc1cc([N+](=O)[O-])ccc1NS(=O)(=O)c1cc(Cl)ccc1Cl [FH535] (first compound 0.02 µM, partner dose 1 µM)	1160
CO[C@H]1C[C@@H]2CC[C@@H](C)[C@@](O)(O2)C(=O)C(=O)N2CCCC[C@H]2C(=O)O[C@H]([C@H](C)C[C@@H]2CC[C@@H](OCCO)[C@H](OC)C2)CC(=O)[C@H](C)/C=C(\C)[C@@H](O)[C@@H](OC)C(=O)[C@H](C)C[C@H](C)/C=C/C=C/C=C/1C [everolimus] + O=C(O)c1ccc(-c2c[nH]c3ncc(-c4ccccc4)cc23)cc1C1CCCC1 [GSK650394] (first compound 0.02 µM, partner dose 0.16 µM)	173
CO[C@H]1C[C@@H]2CC[C@@H](C)[C@@](O)(O2)C(=O)C(=O)N2CCCC[C@H]2C(=O)O[C@H]([C@H](C)C[C@@H]2CC[C@@H](OCCO)[C@H](OC)C2)CC(=O)[C@H](C)/C=C(\C)[C@@H](O)[C@@H](OC)C(=O)[C@H](C)C[C@H](C)/C=C/C=C/C=C/1C [everolimus] + COc1ccc(COc2ccc(Cc3cnc(N)nc3N)cc2OC)cc1 [GW2580] (first compound 0.02 µM, partner dose 1 µM)	247
CO[C@H]1C[C@@H]2CC[C@@H](C)[C@@](O)(O2)C(=O)C(=O)N2CCCC[C@H]2C(=O)O[C@H]([C@H](C)C[C@@H]2CC[C@@H](OCCO)[C@H](OC)C2)CC(=O)[C@H](C)/C=C(\C)[C@@H](O)[C@@H](OC)C(=O)[C@H](C)C[C@H](C)/C=C/C=C/C=C/1C [everolimus] + O=S(=O)(c1ccccc1)N(CC(F)(F)F)c1ccc(C(O)(C(F)(F)F)C(F)(F)F)cc1 [T0901317] (first compound 0.02 µM, partner dose 1.4 µM)	216
Cn1c(=O)n(-c2ccc(C(C)(C)C#N)cc2)c2c3cc(-c4cnc5ccccc5c4)ccc3ncc21 + CN1CCN(c2ccc3nc(-c4c(N)c5c(F)cccc5[nH]c4=O)[nH]c3c2)CC1 [Dovitinib] (first compound 0.004 µM, partner dose 0.1 µM)	52.3
CO[C@H]1C[C@@H]2CC[C@@H](C)[C@@](O)(O2)C(=O)C(=O)N2CCCC[C@H]2C(=O)O[C@H]([C@H](C)C[C@@H]2CC[C@@H](OCCO)[C@H](OC)C2)CC(=O)[C@H](C)/C=C(\C)[C@@H](O)[C@@H](OC)C(=O)[C@H](C)C[C@H](C)/C=C/C=C/C=C/1C [everolimus] + COc1cc(Nc2ncc(F)c(Nc3ccc4c(n3)NC(=O)C(C)(C)O4)n2)cc(OC)c1OC [Tamatinib] (first compound 0.02 µM, partner dose 0.4 µM)	381

Copied from above (2 entries):
SMILES	cleaved PARP positive nuclei fraction [%]
CO[C@H]1C[C@@H]2CC[C@@H](C)[C@@](O)(O2)C(=O)C(=O)N2CCCC[C@H]2C(=O)O[C@H]([C@H](C)C[C@@H]2CC[C@@H](OCCO)[C@H](OC)C2)CC(=O)[C@H](C)/C=C(\C)[C@@H](O)[C@@H](OC)C(=O)[C@H](C)C[C@H](C)/C=C/C=C/C=C/1C [everolimus] + COc1ccc(COc2ccc(Cc3cnc(N)nc3N)cc2OC)cc1 [GW2580] (first compound 0.02 µM, partner dose 1 µM)	247
CO[C@H]1C[C@@H]2CC[C@@H](C)[C@@](O)(O2)C(=O)C(=O)N2CCCC[C@H]2C(=O)O[C@H]([C@H](C)C[C@@H]2CC[C@@H](OCCO)[C@H](OC)C2)CC(=O)[C@H](C)/C=C(\C)[C@@H](O)[C@@H](OC)C(=O)[C@H](C)C[C@H](C)/C=C/C=C/C=C/1C [everolimus] + O=S(=O)(c1ccccc1)N(CC(F)(F)F)c1ccc(C(O)(C(F)(F)F)C(F)(F)F)cc1 [T0901317] (first compound 0.02 µM, partner dose 1.4 µM)	216
